Taken from: PubChem BioAssay AID1053208 (Peter MacCallum Cancer Centre, 2014)
Screen: 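Find knock-downs that sensitise mouse osteosarcoma cells to doxorubicin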 (primary screen). Cell system: mouse osteosarcoma cells, early-passage culture from an engineered mouse model of fibroblastic bone tumour. Knock-down reagent: siRNA pool against mouse genes, 40 nM. Time to read-out: about 120 h (48 h before drug, then 72 h with drug). Conditions: doxorubicin 100 nM for 72 h, roughly 30-40% inhibitory dose. Read-out: 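Luminescent ATP signal taken as viability with or without 100 nM doxorubicin for 72 h; mean of two wells set against non-targeting siRNA and turned into robust z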. Reading the numbers: viability z-score with doxorubicin: higher = more viable cells under doxorubicin; viability z-score without drug: higher = more viable cells with knock-down alone. Hit rule: 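Called active if knock-down leaves viability unchanged without drug (z within -2 to 2) but lowers it with doxorubicin (z at or under -2)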.
In all, the deposit lists about 17,000 reagents; below is a part drawn at random. In the full data, 788 (4.7%) are marked active. 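Calls rest on z-score classes alone; an extra cut-off of viability at most 70% of control was not applied to them.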 Further read-outs or replicates are left out here.

{"Gene": "Mtcp1", "combined z-score class": "no change with or without drug", "viability z-score with doxorubicin": -1.01, "viability z-score without drug": -0.51, "Outcome": "inactive"}
{"Gene": "TNRC6", "combined z-score class": "no change with or without drug", "viability z-score with doxorubicin": -1.69, "viability z-score without drug": 1.18, "Outcome": "inactive"}
{"Gene": "Trak1", "combined z-score class": "no change with or without drug", "viability z-score with doxorubicin": 0.9, "viability z-score without drug": 1.52, "Outcome": "inactive"}
{"Gene": "Map7d3", "combined z-score class": "high cell count without drug only", "viability z-score with doxorubicin": 0.22, "viability z-score without drug": 2.02, "Outcome": "inactive"}
{"Gene": "Dock2", "combined z-score class": "no change with or without drug", "viability z-score with doxorubicin": 0.67, "viability z-score without drug": -0.84, "Outcome": "inactive"}
{"Gene": "H2ac18", "combined z-score class": "high cell count with and without drug", "viability z-score with doxorubicin": 2.36, "viability z-score without drug": 2.53, "Outcome": "inactive"}
{"Gene": "Tnnt1", "combined z-score class": "no change with or without drug", "viability z-score with doxorubicin": 1.24, "viability z-score without drug": 1.18, "Outcome": "inactive"}

The list goes on; the last 2 above are carried over.
{"Gene": "H2ac18", "combined z-score class": "high cell count with and without drug", "viability z-score with doxorubicin": 2.36, "viability z-score without drug": 2.53, "Outcome": "inactive"}
{"Gene": "Tnnt1", "combined z-score class": "no change with or without drug", "viability z-score with doxorubicin": 1.24, "viability z-score without drug": 1.18, "Outcome": "inactive"}
{"Gene": "Fkbp8", "combined z-score class": "no change with or without drug", "viability z-score with doxorubicin": -0.11, "viability z-score without drug": -0.84, "Outcome": "inactive"}
{"Gene": "Uqcrc2", "combined z-score class": "low cell count without drug only", "viability z-score with doxorubicin": -1.24, "viability z-score without drug": -3.04, "Outcome": "inactive"}
{"Gene": "Mef2d", "combined z-score class": "no change with or without drug", "viability z-score with doxorubicin": -0.45, "viability z-score without drug": 1.69, "Outcome": "inactive"}
{"Gene": "Uhrf2", "combined z-score class": "no change with or without drug", "viability z-score with doxorubicin": 1.69, "viability z-score without drug": 0.84, "Outcome": "inactive"}
{"Gene": "Txn1", "combined z-score class": "low cell count with doxorubicin only", "viability z-score with doxorubicin": -2.7, "viability z-score without drug": -1.69, "Outcome": "active"}
